# Drug screen on melanoma cell lines: cell count

Data from the primary screen of doi:10.1371/journal.pone.0140310, rounded.

Drugs:
RKI-983 (400 nM): C[C@@H](N)c1ccc(C(=O)Nc2ccnc3[nH]ccc23)cc1
YM155 (0.4 nM): COCC[n+]1c2c(n(Cc3cnccn3)c1C)C(=O)c1ccccc1C2=O
selumetinib (15 nM): Cn1cnc2c(F)c(Nc3ccc(Br)cc3Cl)c(C(=O)NOCCO)cc21
nilotinib (200 nM): Cc1cn(-c2cc(NC(=O)c3ccc(C)c(Nc4nccc(-c5cccnc5)n4)c3)cc(C(F)(F)F)c2)cn1
NVP-BEZ235 (4 nM): Cn1c(=O)n(-c2ccc(C(C)(C)C#N)cc2)c2c3cc(-c4cnc5ccccc5c4)ccc3ncc21
IMD-0354 (16 nM): O=C(Nc1cc(C(F)(F)F)cc(C(F)(F)F)c1)c1cc(Cl)ccc1O
erlotinib (800 nM): C#Cc1cccc(Nc2ncnc3cc(OCCOC)c(OCCOC)cc23)c1
bexarotene (2000 nM): C=C(c1ccc(C(=O)O)cc1)c1cc2c(cc1C)C(C)(C)CCC2(C)C
T0901317 (1400 nM): O=S(=O)(c1ccccc1)N(CC(F)(F)F)c1ccc(C(O)(C(F)(F)F)C(F)(F)F)cc1

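Human melanoma cells were exposed to two drugs together for 72 h in 1,536-well plates and read by automated microscopy after fixing and staining. Each value is the count of nuclei relative to DMSO-treated wells, in %, so that 100 equals the control. Concentrations were fixed for each drug; these are the lower of two levels, a fifth of the higher. No replicate spread is given; individual values may be noisy.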
This is part of the screen, not chosen by result.
A dash means that no value is listed here.

Combination	C32	501mel	G-361	COLO 800	A2058	COLO 829	COLO 792	LOX IMVI	IST-MEL1	LB2518-MEL
selumetinib + RKI-983	69.2	-	96.1	93.3	87.9	104	80.1	84.3	97.4	83.3
IMD-0354 + bexarotene	97.3	-	92.5	117	109	123	80.4	97.1	98.7	110
selumetinib + NVP-BEZ235	81.7	-	93.9	85.8	96.4	106	88.1	130	92.1	63.0
erlotinib + RKI-983	91.5	-	110	91.6	87.3	106	86.8	95.7	92.9	99.4
YM155 + bexarotene	89.1	-	100	97.8	89.6	76.2	111	67.2	91.6	105
IMD-0354 + selumetinib	89.1	-	112	104	99.8	118	88.4	111	96.0	77.9
RKI-983 + NVP-BEZ235	95.1	-	74.7	149	81.4	75.8	92.0	79.1	90.7	129
YM155 + IMD-0354	113	-	96.6	93.4	86.2	94.0	105	135	95.4	99.2
nilotinib + T0901317	94.2	69.7	84.0	90.9	93.3	111	107	98.0	94.8	114
erlotinib + bexarotene	83.9	-	98.3	150	105	87.3	89.0	96.7	94.1	104
IMD-0354 + nilotinib	98.9	-	94.5	81.9	104	95.5	99.0	94.6	95.3	106
NVP-BEZ235 + IMD-0354	102	-	85.1	111	86.1	109	104	101	101	108
bexarotene + nilotinib	104	-	86.4	74.3	82.9	84.5	107	95.3	92.2	87.3
YM155 + selumetinib	86.4	-	79.6	101	94.2	110	103	92.1	86.5	62.1
nilotinib + NVP-BEZ235	93.1	-	91.1	86.2	95.4	111	88.8	109	95.6	94.9
NVP-BEZ235 + erlotinib	105	-	84.8	85.8	81.2	99.9	77.5	98.0	97.5	93.0
T0901317 + IMD-0354	97.9	75.9	91.1	81.0	92.6	118	94.3	127	89.4	103
T0901317 + NVP-BEZ235	82.1	93.9	70.6	79.0	86.1	92.8	82.6	150	96.1	97.8
YM155 + RKI-983	82.4	-	96.5	113	73.7	88.2	104	62.5	105	129
erlotinib + T0901317	97.6	83.3	84.1	107	88.0	98.3	81.5	98.7	95.4	102
bexarotene + NVP-BEZ235	103	-	86.6	79.6	101	65.6	97.1	74.4	96.6	124
IMD-0354 + RKI-983	74.5	-	119	183	79.0	105	102	94.4	90.6	109
YM155 + T0901317	97.4	109	93.9	69.9	75.5	101	106	59.9	92.7	91.0
YM155 + nilotinib	106	-	92.5	70.8	93.2	93.7	100	86.1	89.4	104
erlotinib + nilotinib	88.6	-	93.2	90.4	91.9	91.7	72.0	120	99.8	111
NVP-BEZ235 + YM155	83.5	-	88.7	125	89.3	97.8	75.2	55.5	86.6	84.0
RKI-983 + nilotinib	74.1	-	90.5	107	77.5	96.4	91.2	98.4	104	129
bexarotene + selumetinib	83.1	-	90.4	140	112	131	80.8	173	90.5	-
erlotinib + selumetinib	92.7	-	92.2	128	93.2	109	65.0	63.0	92.0	76.8
erlotinib + IMD-0354	96.2	-	91.0	88.0	93.4	91.9	79.3	99.0	97.4	109
nilotinib + selumetinib	101	-	91.8	69.5	109	141	95.4	96.6	88.8	84.7

Some entries from above, unchanged:

| Combination | C32 | 501mel | G-361 | COLO 800 | A2058 | COLO 829 | COLO 792 | LOX IMVI | IST-MEL1 | LB2518-MEL |
|---|---|---|---|---|---|---|---|---|---|---|
| nilotinib + selumetinib | 101 | - | 91.8 | 69.5 | 109 | 141 | 95.4 | 96.6 | 88.8 | 84.7 |
| RKI-983 + NVP-BEZ235 | 95.1 | - | 74.7 | 149 | 81.4 | 75.8 | 92.0 | 79.1 | 90.7 | 129 |
| nilotinib + T0901317 | 94.2 | 69.7 | 84.0 | 90.9 | 93.3 | 111 | 107 | 98.0 | 94.8 | 114 |